Results: publication PMC7819943, “Rice protein-binding microarrays: a tool to detect cis-acting elements near promoter regions in rice”
This is one part of the list.

Protein sequences, listed by entry. Tags and fused reporters are not part of them.
UniProt Q0JBA9, entry or part of it: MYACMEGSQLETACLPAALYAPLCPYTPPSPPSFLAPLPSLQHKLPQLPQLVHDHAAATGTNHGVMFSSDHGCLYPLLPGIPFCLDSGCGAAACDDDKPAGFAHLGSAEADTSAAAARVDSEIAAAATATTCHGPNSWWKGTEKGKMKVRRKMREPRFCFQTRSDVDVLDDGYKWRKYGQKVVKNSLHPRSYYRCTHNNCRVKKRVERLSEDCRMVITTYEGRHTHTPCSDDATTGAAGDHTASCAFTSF

Each sequence was assayed against OsWRKY34 (Oryza sativa, UniProt Q0JBA9 1-250) (assay: protein-binding microarray (RPBM); PBS, 2% BSA, 51.3 ng/ul salmon testes DNA, 50 uM zinc acetate, 200 nM TF, 25 C, 1 h; high values mean tight binding). Details: protein: recombinant; tags: N-terminal polyhistidine and DsRed monomer fusion (pET32a); label: CyDye5-dUTP incorporated in the synthesized complementary strand; 3' TTTTT single-stranded linker to array surface; dsDNA, one strand shown.
Summary of the method: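 Transcription factors were made in E. coli BL21-CodonPlus as N-terminal fusions to a polyhistidine tag and DsRed, then purified on Ni–NTA. After primer extension with Cy5-dUTP and blocking with 2% BSA, a custom Agilent array was exposed for 1 h at 25 °C to 200 nM protein in PBS, 2% BSA, salmon testes DNA and 50 µM zinc acetate. Washed arrays were scanned on an Axon 4000B, and the binding signal is per-feature fluorescence intensity in arbitrary units.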

Sequence | binding signal
ATTGGATACATGTCATTGTAAGTTTGTAACTCTACCAGTTCGGAGTCACCTAGTGCAG | 9790 fluorescence intensity (a.u.)
CCGTGAAACCAAGCGCATACACTGCTTATTTTTTTCGTCTCGGAGTCACCTAGTGCAG | 8330 fluorescence intensity (a.u.)
GTGTTATATCTGGTATTGTGGTTTAGAGACGAATTTTAGACGGAGTCACCTAGTGCAG | 8340 fluorescence intensity (a.u.)
GATTGTTGTCCTAATTAGCTTCTCCTGATCCGATATTCAACGGAGTCACCTAGTGCAG | 10400 fluorescence intensity (a.u.)
GGCTGATGATGTTCTTGTTACGTTTTTAGTTTTCCTTTTTCGGAGTCACCTAGTGCAG | 8580 fluorescence intensity (a.u.)
AACCTTCTCACTGATTAACACCTTAGAGTTAGTTAATAACCGGAGTCACCTAGTGCAG | 8740 fluorescence intensity (a.u.)
ACCTCCCAGCCACTGGAGCACCGGCGCGCCGCTCATCTCTCGGAGTCACCTAGTGCAG | 10200 fluorescence intensity (a.u.)
CTATTATTGATTGCTCTACGGATGGCATGGATGGAGGTTGCGGAGTCACCTAGTGCAG | 8530 fluorescence intensity (a.u.)
GCCACACAGCTCTCTCTGCCGTTGTTTTCTTCCACGCGCTCGGAGTCACCTAGTGCAG | 12900 fluorescence intensity (a.u.)
TACTTTGTCCCAAAATGAAACTATTTTTCTACCTACCTTCCGGAGTCACCTAGTGCAG | 8120 fluorescence intensity (a.u.)
GATTGATGCTGAACCTTTCTGCTGTTTCTTGTGCTATGTACGGAGTCACCTAGTGCAG | 8110 fluorescence intensity (a.u.)
AAAATCAAATCTTTTTAATTAATTAATTGCTGTTTAGTACCGGAGTCACCTAGTGCAG | 8720 fluorescence intensity (a.u.)
CACCACCTGCACCTTGCCCTGCTTGTCGTCCTCGAATTTCCGGAGTCACCTAGTGCAG | 13700 fluorescence intensity (a.u.)
GTCCTGGCCAGTGGCCACTGGGGTTCCACTTGCAATTCTTCGGAGTCACCTAGTGCAG | 8580 fluorescence intensity (a.u.)
AAGATCTGGCTTGGTGCCCTACTTTTTTTTCTCTCTCTCTCGGAGTCACCTAGTGCAG | 8260 fluorescence intensity (a.u.)
CTATTTTTCTCATCGCCTCACCATGTTTAGTTTCTCTAGTCGGAGTCACCTAGTGCAG | 8970 fluorescence intensity (a.u.)
GTGGGAAGGGGAATGACCGTTGTGTGGTAGTTCGGGGTGGCGGAGTCACCTAGTGCAG | 11100 fluorescence intensity (a.u.)
GCTCCTGGATTGCATGCATGCACCACCTTTGTTTGCTGCTCGGAGTCACCTAGTGCAG | 8400 fluorescence intensity (a.u.)
TTCTAGAAATCTCTTGTGCATTTTACGGTCCTACCTCGTGCGGAGTCACCTAGTGCAG | 9240 fluorescence intensity (a.u.)
CATGAGTCATCATCTCATCTTATATGAGTCATGACCGCATCGGAGTCACCTAGTGCAG | 8460 fluorescence intensity (a.u.)
CTGTTGTGATATTTTCTTTTTCTTTCGAGACGGTTTGTTTCGGAGTCACCTAGTGCAG | 9950 fluorescence intensity (a.u.)
GGTGTGATTTTTGTTTGCTTGTGTTGTTACTCTGGTGCAACGGAGTCACCTAGTGCAG | 14300 fluorescence intensity (a.u.)
TCTACTTCCTGGTGGCCGCACGCCTCATTCTCGCTTTAGACGGAGTCACCTAGTGCAG | 12300 fluorescence intensity (a.u.)
ATTGAGCATTGTTTACTAATTCCCGCATCACCTAGTTTCTCGGAGTCACCTAGTGCAG | 8950 fluorescence intensity (a.u.)
TTTGTTTTCCTAGCCTCTCTTACGCACAGGGAGGTGGGGCCGGAGTCACCTAGTGCAG | 10100 fluorescence intensity (a.u.)
TCGCCTTCCGCTCTCTCGCGCGCGGTCGCGCCGCGCGCCGCGGAGTCACCTAGTGCAG | 9510 fluorescence intensity (a.u.)
AGGGGAGGTTCATTACTTTCGATTGGTCAACAACGCAAGCCGGAGTCACCTAGTGCAG | 10400 fluorescence intensity (a.u.)

Sequence | binding signal
CCATCACCGCCTATCCCACGCTCACCCATCTCTTCCCATCCGGAGTCACCTAGTGCAG | 9300 fluorescence intensity (a.u.)
CACCCACGCTAGCAATTTTCTTCTGTCAATTCCTTTCACCCGGAGTCACCTAGTGCAG | 8760 fluorescence intensity (a.u.)
TGTTTTTCACGATTTTTCAACTCTTACCTCGTTTTCACCGCGGAGTCACCTAGTGCAG | 8240 fluorescence intensity (a.u.)
ATCCCCAGCCTCATCGCCGTGAACCGGTCGCCGTCCACCGCGGAGTCACCTAGTGCAG | 8540 fluorescence intensity (a.u.)
TCCGCGCCTCGTCGACCTCGGCTCCGGCCACCGATCGATGCGGAGTCACCTAGTGCAG | 8280 fluorescence intensity (a.u.)
TGGCTGCGAACCACACACCCGATGTGTCCCCACTGCCTTTCGGAGTCACCTAGTGCAG | 8100 fluorescence intensity (a.u.)
CACCACCGCCTCTCTCTCCCCGCCTCTCGCCTATAAATACCGGAGTCACCTAGTGCAG | 8580 fluorescence intensity (a.u.)
CGCGCCCACCAGTCCACTCACGCGGTCACTCTCCTCCAGTCGGAGTCACCTAGTGCAG | 8140 fluorescence intensity (a.u.)
GCCTCACCTCATCTTTTATTTTTATTTTAATTTTTAATTTCGGAGTCACCTAGTGCAG | 11900 fluorescence intensity (a.u.)
CTAACTAAACCCACCCCTATTTACTGCAACACATATTTTACGGAGTCACCTAGTGCAG | 9360 fluorescence intensity (a.u.)
CCTCACCTCCGCCGCCTCCAAACCCTAACCCGCGCGCTCGCGGAGTCACCTAGTGCAG | 10700 fluorescence intensity (a.u.)
TATCGACCGTGAATATTTTATCTCCTTTCCTATTGACACTCGGAGTCACCTAGTGCAG | 9840 fluorescence intensity (a.u.)
TGCAAGATGTAGGTGGTGTTTGAATAGATGATGAAGATGACGGAGTCACCTAGTGCAG | 8090 fluorescence intensity (a.u.)
TCTTTCCTTTTTTCCGTCGATTCACCATTGTTGCTTGGGGCGGAGTCACCTAGTGCAG | 8310 fluorescence intensity (a.u.)
GTTAGCGTTTTATGCATACCATTTTAATACTTCAATTCAACGGAGTCACCTAGTGCAG | 8200 fluorescence intensity (a.u.)
TGGTTGGTTTGACGCTACACGGTTGGTGTGCAGGTCTGCGCGGAGTCACCTAGTGCAG | 8870 fluorescence intensity (a.u.)
CGCCGCCACCACCGCCACGGCGCCACCGCCGCCGCCGCCACGGAGTCACCTAGTGCAG | 8570 fluorescence intensity (a.u.)
ACTTTCAGGCCTCATAACTGTGCCAGTGACGACAACAGATCGGAGTCACCTAGTGCAG | 8430 fluorescence intensity (a.u.)
CAAAATAACCAGTGCTCAAATGCCACTCTCCCAAATTTTCCGGAGTCACCTAGTGCAG | 8820 fluorescence intensity (a.u.)
TCCTTATATAAAGCCATGCGCTCCCACCGCTTCTTAACATCGGAGTCACCTAGTGCAG | 9060 fluorescence intensity (a.u.)
AGTAGTATAGGGGAGAGGGTGGGCGGGTGATCGCTGGGCGCGGAGTCACCTAGTGCAG | 16200 fluorescence intensity (a.u.)
ATGAATTGCTGCCCTGTGAATTTGTCCTGGACTTACCTTCCGGAGTCACCTAGTGCAG | 10100 fluorescence intensity (a.u.)
CAACAGTGCCAATTGCAATTGCCATCATTCTTTACTGTCACGGAGTCACCTAGTGCAG | 9900 fluorescence intensity (a.u.)
TGGACCAGTTTATGTTGCATTTTTTAAAAACACCTGTTTACGGAGTCACCTAGTGCAG | 8710 fluorescence intensity (a.u.)
AATCACACTACCATCCGTTGTAAAGGCTGGCGCACCCTGACGGAGTCACCTAGTGCAG | 8300 fluorescence intensity (a.u.)
TTTGCATAGGAATATAGTCTTCTAGCTTTTGCTTGTTTAACGGAGTCACCTAGTGCAG | 8200 fluorescence intensity (a.u.)
GTTTATGTTTGTTTCTCTTCATTACCAGTAGTAGCAACTACGGAGTCACCTAGTGCAG | 9630 fluorescence intensity (a.u.)

Quoted from the listing.
In binding signal, CACCACCTGCACCTTGCCCTGCTTGTCGTCCTCGAATTTCCGGAGTCACCTAGTGCAG is entered as 13700 fluorescence intensity (a.u.)
In binding signal, ATTGGATACATGTCATTGTAAGTTTGTAACTCTACCAGTTCGGAGTCACCTAGTGCAG is entered as 9790 fluorescence intensity (a.u.)
